Structures are written as SMILES.

The text below walks through data of patent US9192589B2, “Chalcones as enhancer of antimicrobial agents” (priority 2009, dated 2015).

One test deals with A. viscosus. Put plainly: MIC assay using A. viscosus as reference organism (96-well, OD610). The test is classed as cell-based. The conditions noted are these: Actinomyces viscosus, compound alone, 0.5x TSB, overnight 37° C. The procedure: The compound CK-4 was first tested to assess whether it had antimicrobial efficacy on its own. An MIC assay was performed on two known anti-bacterial agents, as well as CK-4, using A. viscosus as the reference organism.
(§1) Actinomyces viscosus (ATCC#43146) was grown in trypticase soy broth supplemented with 0.6% yeast extract (TSB-YE) at 37° C., static culture. For mixed species assays, the source of bacteria was a continuous culture chemostat inoculated with A. viscosus, Lactobacillus casei (ATCC #334), Streptococcus oxalis (ATCC #35037), Fusobacterium nucleatum (ATCC #10953), and Veilonella parvula (ATCC #17745). This mixed culture was maintained in a specialized complex medium in a continuous culture chemostat at 37° C.
MIC assays were performed using A. viscosus as a reference organism. Compounds to be tested were plated in the duplicate rows of the first column of a sterile 96-well culture plate. Two-fold serial dilutions were performed into 0.5×TSB across the plate. […] The OD610 of the entire plate was read on a Perkin Elmer EnVision microplate reader. Absorbance values for duplicate wells were averaged and compared to values for wells containing bacteria in media alone. MIC values were determined as the concentration of active in the last well for which growth of bacteria was inhibited relative to the media controls. […]

The test system of the next test is A. Viscosus biofilm. In words: Inhibition of single species biofilm formation (BEC50, crystal violet). The test is classed as cell-based, Actinomyces viscosus. The procedure:
as §1
To assess the bioenhancing ability of CK-4, inhibition of single species biofilm formation tests were conducted. Actives of interest were plated in the first column of a sterile 384-well culture plate and serial twofold dilutions were performed across the plate in 0.5× TSB. First generation cultures of A. Viscosus bacteria were grown overnight in TSB-YE. Cultures were diluted to an OD610˜0.2 in 0.5×TSB and plated in the wells containing serial dilutions of actives. Plates were incubated for 24 hours at 37° C. to allow growth and biofilm formation to occur.
Following incubation, supernatants were removed from the plate and remaining biofilms were stained with 0.03% Grain's crystal violet. Stained plates were read on a Perkin Elmer EnVision microplate reader for absorbance at 590 nm.

Usually MIC stands for the lowest concentration found to suppress growth. Read a high MIC as a need for much substance. Molecule `CCCCCCCCCCCCCCCC[n+]1ccccc1` [CPC, cetyl pyridinium chloride] displayed an MIC against A. viscosus of less than 1 µg/mL. For the same molecule, the BEC50 alone in the test with A. Viscosus biofilm (A. viscosus single species biofilm, 24 hours, agent alone) was 1.95. For the same molecule, in the test on A. Viscosus biofilm (A. viscosus single species biofilm, 24 hours, with CK-4), the “BEC50 with CK-4” value was found to be 0.49. For the same molecule, in the test on A. Viscosus biofilm (with CK-4), the “decrease in BEC50 compared to agent alone” value is reported as roughly 4 fold.
